# Source: the supplement of paper PMC12462457
# Structures can show the parent of a compound that is named as a salt. ± gives the standard deviation of the averaged measurements. Some of the results follow. Repeats in this data set agree poorly, so a single value says little.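 Imaging of DAPI-stained nuclei was used to count cells; those without phalloidin-stained cytoplasm were treated as dead and excluded. Every well's count was divided by the median of same-plate vehicle wells, then averaged across two replicate plates.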
# Test system: OVCAR8
# Assay: cell count relative to DMSO vehicle (fold change); higher = more surviving senescent cells (less killing)
# Conditions: senescence inducer: cisplatin 10 µM 48 h, then 6 d recovery (CP senescent), exposure time 24 h
Structure (SMILES),cell count (compound dose 1 µM),cell count (compound dose 5 µM)
CC(C)(C)C(=O)N1N=CC[C@H]1c1ccccc1,1.17 ± 0.09,0.71 ± 0.16
COc1cc(N2CCC(N)CC2)ccc1Nc1ncc(Cl)c(-c2c[nH]c3ccccc23)n1,0.882 ± 0.096,0.45 ± 0.052
Nc1[nH]nc2nnc(-c3c(-c4ccccc4)nn4ccccc34)cc12,1.08 ± 0.12,0.961 ± 0.24
Cc1ccc(NC(=O)c2cccc(N(C)C)c2)cc1NC(=O)c1ccc(O)cc1,0.838 ± 0.061,0.851 ± 0.098
O=C1NCCc2[nH]c(-c3ccncc3)cc21,1.28 ± 0.081,0.872 ± 0.2
CCCCOc1ccc(CC/C=C2\SC(=O)N(CCN)C2=O)cc1 [K145 (hydrochloride)],0.982 ± 0.18,0.887 ± 0.026
O=C(CCCCCCC(=O)Nc1ccccc1)NO,0.716 ± 0.11,0.366 ± 0.031
O=C(/C=C/c1ccc(O)c(O)c1)c1ccc(O)cc1O [Butein],1.09 ± 0.12,1.18 ± 0.15
COc1ccc(CN(C(=O)Cc2cccs2)c2cc(OC)c(OC)c(OC)c2)cc1,0.665 ± 0.066,0.642 ± 0.3
COc1cc2/c(=N/c3ccc(Br)cc3F)nc[nH]c2cc1OCC1CCN(C)CC1 [Vandetanib],1.12 ± 0.11,1.04 ± 0.02
O=C(CCCCCN1C(=O)c2cccc3cccc(c23)C1=O)NO [Scriptaid],0.73 ± 0.17,0.489 ± 0.023
CCN(CC)C(=S)SSC(=S)N(CC)CC,0.442 ± 0.2,0.0705 ± 0.054
CCCn1/c(=N/C(=O)c2cccc(C(N)=O)c2)[nH]c2ccccc21 [Takinib],1.06 ± 0.18,0.761 ± 0.064
CCOC(=O)C1=C(C)NC(C)=C(C(=O)OCC)C1c1ccccc1/C=C/C(=O)OC(C)(C)C [Lacidipine],1.1 ± 0.14,0.691 ± 0.19
Cc1nc2cccc(N)c2c(=O)n1C1CCC(=O)NC1=O (configuration not stated) [Avadomide],0.866 ± 0.37,1.22 ± 0.16
O=S(=O)(c1ccccc1)N(CC(F)(F)F)c1ccc(C(O)(C(F)(F)F)C(F)(F)F)cc1,1.06 ± 0.17,0.919 ± 0.13
Cc1cc(N2CCOCC2)cc2[nH]c(-c3c(NC[C@@H](O)c4cccc(Cl)c4)cc[nH]c3=O)nc12,0.708 ± 0.12,0.495 ± 0.061
CS(=O)(=O)N1CCN(Cc2cc3nc(-c4cccc5[nH]ncc45)nc(N4CCOCC4)c3s2)CC1 [Pictilisib (GDC-0941)],0.776 ± 0.0078,0.682 ± 0.042

Structure (SMILES),cell count (compound dose 1 µM),cell count (compound dose 5 µM)
Cc1cc(O)c(C(=O)CCC(C)C)c(=O)o1 [Pogostone],1.21 ± 0.089,0.815 ± 0.23
CC1(C)SCCN(S(=O)(=O)c2ccc(OCC#CCO)cc2)[C@H]1C(=O)NO [Apratastat],1.14 ± 0.061,0.883 ± 0.08
Nc1nc2c(ncn2COCCO)c(=O)[nH]1,1.32 ± 0.16,0.907 ± 0.15
CC1(C)C2=CCCC(C)(C)[C@]23CC[C@H]1C3 [Isolongifolene],0.985 ± 0.029,0.93 ± 0.16
COc1ccc(C(=O)CC(=O)c2ccc(C(C)(C)C)cc2)cc1,1.01 ± 0.12,0.794 ± 0.19
COc1ccc(C(=O)c2ccccc2)c(O)c1,1 ± 0.14,0.87 ± 0.36
CC(C)(C)c1ccc(C(=O)NC(=S)Nc2ccc(N)cc2)cc1 [Tenovin-3],1.05 ± 0.014,1.04 ± 0.014
CNC(=O)[C@@H](c1ccccc1)N1CCc2cc(OC)c(OC)cc2[C@@H]1CCc1ccc(C(F)(F)F)cc1 [Almorexant],0.959 ± 0.05,0.57 ± 0.017
CCCCCCCC/C=C1\C=C(C(F)(F)F)c2cc(O)c(O)cc21,0.674 ± 0.068,0.023 ± 0.016
O=C(c1cc(-c2cc3c(cc2C(=O)N2Cc4ccccc4C[C@H]2CN2CCOCC2)OCO3)n2c1CCCC2)N(c1ccccc1)c1ccc(O)cc1,0.917 ± 0.12,0.441 ± 0.052
CNC(=O)c1ccccc1Nc1nc(Nc2ccc(N3CCOCC3)cc2OC)ncc1Cl,0.98 ± 0.043,0.929 ± 0.15
COc1cc(C2CC(c3ccccc3)=NN2C(N)=S)cc(OC)c1OC (configuration not stated),0.8135 ± 0.0035,0.858 ± 0.12
CCOC(=O)c1cnc(C#Cc2ccc3c(c2)C(C)(C)CC[S+]3[O-])nc1 (configuration not stated),1.2 ± 0.2,0.59 ± 0.0064
Nc1nc(Cl)nc2c1ncn2[C@H]1C[C@H](O)[C@@H](CO)O1 [Cladribine],1.099 ± 0.0021,0.775 ± 0.42
O=C(C=Cc1ccccc1)NC(NC(=S)Nc1ccc(Cl)cc1)C(Cl)(Cl)Cl (configuration not stated),0.822 ± 0.077,0.795 ± 0.064
COc1cccc2c1C(=O)c1c(O)c3c(c(O)c1C2=O)C[C@@](O)(C(=O)CO)C[C@@H]3O[C@H]1C[C@H](N)[C@H](O)[C@H](C)O1 [Doxorubicin (hydrochloride)],0.848 ± 0.13,0.608 ± 0.11
CN(CCO)CC[C@H](CSc1ccccc1)Nc1ccc(S(=O)(=O)NC(=O)c2ccc(N3CCC([C@@H](O)c4ccccc4-c4ccc(Cl)cc4)CC3)cc2)cc1S(=O)(=O)C(F)(F)F,0.222 ± 0.036,0.0835 ± 0.013
CCCCCCC[N+](CC)(CC)CCCCc1ccc(Cl)cc1 [Clofilium tosylate],1.03 ± 0.03,1.05 ± 0.09

# Look-ups from the list.
# cell count (compound dose 5 µM), CC1(C)C2=CCCC(C)(C)[C@]23CC[C@H]1C3 [Isolongifolene] reads 0.93 ± 0.16
# cell count (compound dose 5 µM), COc1ccc(C(=O)c2ccccc2)c(O)c1 reads 0.87 ± 0.36
